Assay results from the supplement of paper PMC12282887.

Test system: Escherichia coli BW25113
Test: growth (OD600 area under curve, 8 h) (OD600 x h); higher = more growth
Description: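 E. coli BW25113 reporter strains (wild type, ΔmarA, ΔsoxS, Δrob, each carrying one of 8 lux reporter plasmids) were grown in 40 µl LB in 384-well plates at 37°C, 800 rpm, with each compound at 4 two-fold concentrations, in biological duplicates. Growth is the baseline-corrected OD600 area under the curve over 8 h (0-8 h WT, 1-9 h deletion strains).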

Nc1ccc(C(=O)O)c(O)c1 [4-Aminosalicylic acid]
growth (19.1 µg/ml, genetic background: wild type, reporter plasmid: EVC): 2.14 ± 0.29 | growth (19.1 µg/ml, genetic background: wild type, reporter plasmid: acrABp): 3.02 ± 0.23 | growth (19.1 µg/ml, genetic background: wild type, reporter plasmid: marRABp): 2.96 ± 0.24 | growth (19.1 µg/ml, genetic background: wild type, reporter plasmid: micFp): 2.65 ± 0.18 | growth (19.1 µg/ml, genetic background: wild type, reporter plasmid: ompFp): 2.68 ± 0.055 | growth (19.1 µg/ml, genetic background: wild type, reporter plasmid: robp): 3 ± 0.05 | growth (19.1 µg/ml, genetic background: wild type, reporter plasmid: soxSp): 2.51 ± 0.12 | growth (19.1 µg/ml, genetic background: wild type, reporter plasmid: tolCp): 2.48 ± 0.053 | growth (19.1 µg/ml, genetic background: ΔmarA, reporter plasmid: EVC): 2.64 ± 0.38 | growth (19.1 µg/ml, genetic background: ΔmarA, reporter plasmid: acrABp): 3.83 ± 0.47 | growth (19.1 µg/ml, genetic background: ΔmarA, reporter plasmid: marRABp): 3.16 ± 0.46 | growth (19.1 µg/ml, genetic background: ΔmarA, reporter plasmid: micFp): 2.82 ± 0.86 | growth (19.1 µg/ml, genetic background: ΔmarA, reporter plasmid: ompFp): 3.03 ± 0.85 | growth (19.1 µg/ml, genetic background: ΔmarA, reporter plasmid: robp): 3.18 ± 0.5 | growth (19.1 µg/ml, genetic background: ΔmarA, reporter plasmid: soxSp): 2.15 ± 0.2 | growth (19.1 µg/ml, genetic background: ΔmarA, reporter plasmid: tolCp): 2.37 ± 0.54 | growth (19.1 µg/ml, genetic background: Δrob, reporter plasmid: EVC): 2.48 ± 0.34 | growth (19.1 µg/ml, genetic background: Δrob, reporter plasmid: acrABp): 2.85 ± 0.24 | growth (19.1 µg/ml, genetic background: Δrob, reporter plasmid: marRABp): 2.896 ± 0.022 | growth (19.1 µg/ml, genetic background: Δrob, reporter plasmid: micFp): 2.57 ± 0.1 | growth (19.1 µg/ml, genetic background: Δrob, reporter plasmid: ompFp): 2.23 ± 0.61 | growth (19.1 µg/ml, genetic background: Δrob, reporter plasmid: robp): 2.31 ± 0.17 | growth (19.1 µg/ml, genetic background: Δrob, reporter plasmid: soxSp): 2.17 ± 0.12 | growth (19.1 µg/ml, genetic background: Δrob, reporter plasmid: tolCp): 2.37 ± 0.12 | growth (19.1 µg/ml, genetic background: ΔsoxS, reporter plasmid: EVC): 2.53 ± 0.17 | growth (19.1 µg/ml, genetic background: ΔsoxS, reporter plasmid: acrABp): 2.71 ± 0.75 | growth (19.1 µg/ml, genetic background: ΔsoxS, reporter plasmid: marRABp): 3.05 ± 0.71 | growth (19.1 µg/ml, genetic background: ΔsoxS, reporter plasmid: micFp): 2.19 ± 0.12 | growth (19.1 µg/ml, genetic background: ΔsoxS, reporter plasmid: ompFp): 2.56 ± 0.98 | growth (19.1 µg/ml, genetic background: ΔsoxS, reporter plasmid: robp): 3.16 ± 0.1 | growth (19.1 µg/ml, genetic background: ΔsoxS, reporter plasmid: soxSp): 2.75 ± 0.73 | growth (19.1 µg/ml, genetic background: ΔsoxS, reporter plasmid: tolCp): 2.45 ± 0.28 | growth (38.3 µg/ml, genetic background: wild type, reporter plasmid: EVC): 2.08 ± 0.12 | growth (38.3 µg/ml, genetic background: wild type, reporter plasmid: acrABp): 3.05 ± 0.43 | growth (38.3 µg/ml, genetic background: wild type, reporter plasmid: marRABp): 3.04 ± 0.17 | growth (38.3 µg/ml, genetic background: wild type, reporter plasmid: micFp): 2.75 ± 0.085 | growth (38.3 µg/ml, genetic background: wild type, reporter plasmid: ompFp): 2.77 ± 0.24 | growth (38.3 µg/ml, genetic background: wild type, reporter plasmid: robp): 2.86 ± 0.32 | growth (38.3 µg/ml, genetic background: wild type, reporter plasmid: soxSp): 2.52 ± 0.037 | growth (38.3 µg/ml, genetic background: wild type, reporter plasmid: tolCp): 2.53 ± 0.042 | growth (38.3 µg/ml, genetic background: ΔmarA, reporter plasmid: EVC): 2.6 ± 0.052 | growth (38.3 µg/ml, genetic background: ΔmarA, reporter plasmid: acrABp): 3.66 ± 0.47 | growth (38.3 µg/ml, genetic background: ΔmarA, reporter plasmid: marRABp): 3.01 ± 0.31 | growth (38.3 µg/ml, genetic background: ΔmarA, reporter plasmid: micFp): 2.55 ± 0.44 | growth (38.3 µg/ml, genetic background: ΔmarA, reporter plasmid: ompFp): 2.88 ± 0.91 | growth (38.3 µg/ml, genetic background: ΔmarA, reporter plasmid: robp): 2.8 ± 0.28 | growth (38.3 µg/ml, genetic background: ΔmarA, reporter plasmid: soxSp): 2.03 ± 0.36 | growth (38.3 µg/ml, genetic background: ΔmarA, reporter plasmid: tolCp): 2.39 ± 0.37 | growth (38.3 µg/ml, genetic background: Δrob, reporter plasmid: EVC): 2.41 ± 0.55 | growth (38.3 µg/ml, genetic background: Δrob, reporter plasmid: acrABp): 2.765 ± 0.025 | growth (38.3 µg/ml, genetic background: Δrob, reporter plasmid: marRABp): 2.85 ± 0.055 | growth (38.3 µg/ml, genetic background: Δrob, reporter plasmid: micFp): 2.5 ± 0.088 | growth (38.3 µg/ml, genetic background: Δrob, reporter plasmid: ompFp): 2.19 ± 0.82 | growth (38.3 µg/ml, genetic background: Δrob, reporter plasmid: robp): 2.39 ± 0.1 | growth (38.3 µg/ml, genetic background: Δrob, reporter plasmid: soxSp): 2.1 ± 0.27 | growth (38.3 µg/ml, genetic background: Δrob, reporter plasmid: tolCp): 2.22 ± 0.48 | growth (38.3 µg/ml, genetic background: ΔsoxS, reporter plasmid: EVC): 2.62 ± 0.19 | growth (38.3 µg/ml, genetic background: ΔsoxS, reporter plasmid: acrABp): 2.67 ± 0.73 | growth (38.3 µg/ml, genetic background: ΔsoxS, reporter plasmid: marRABp): 3.1 ± 0.6 | growth (38.3 µg/ml, genetic background: ΔsoxS, reporter plasmid: micFp): 2.33 ± 0.2 | growth (38.3 µg/ml, genetic background: ΔsoxS, reporter plasmid: ompFp): 2.72 ± 0.68 | growth (38.3 µg/ml, genetic background: ΔsoxS, reporter plasmid: robp): 2.84 ± 0.07 | growth (38.3 µg/ml, genetic background: ΔsoxS, reporter plasmid: soxSp): 2.74 ± 0.6 | growth (38.3 µg/ml, genetic background: ΔsoxS, reporter plasmid: tolCp): 2.54 ± 0.34 | growth (76.6 µg/ml, genetic background: wild type, reporter plasmid: EVC): 1.9269 ± 0.0016 | growth (76.6 µg/ml, genetic background: wild type, reporter plasmid: acrABp): 3.54 ± 0.12 | growth (76.6 µg/ml, genetic background: wild type, reporter plasmid: marRABp): 3.47 ± 0.14 | growth (76.6 µg/ml, genetic background: wild type, reporter plasmid: micFp): 2.68 ± 0.32 | growth (76.6 µg/ml, genetic background: wild type, reporter plasmid: ompFp): 2.98 ± 0.12 | growth (76.6 µg/ml, genetic background: wild type, reporter plasmid: robp): 3.082 ± 0.018 | growth (76.6 µg/ml, genetic background: wild type, reporter plasmid: soxSp): 2.349 ± 0.015 | growth (76.6 µg/ml, genetic background: wild type, reporter plasmid: tolCp): 2.56 ± 0.16 | growth (76.6 µg/ml, genetic background: ΔmarA, reporter plasmid: EVC): 2.96 ± 0.41 | growth (76.6 µg/ml, genetic background: ΔmarA, reporter plasmid: acrABp): 4.74 ± 0.69 | growth (76.6 µg/ml, genetic background: ΔmarA, reporter plasmid: marRABp): 4.2 ± 0.53 | growth (76.6 µg/ml, genetic background: ΔmarA, reporter plasmid: micFp): 2.88 ± 0.3 | growth (76.6 µg/ml, genetic background: ΔmarA, reporter plasmid: ompFp): 3.45 ± 0.45 | growth (76.6 µg/ml, genetic background: ΔmarA, reporter plasmid: robp): 4.27 ± 0.45 | growth (76.6 µg/ml, genetic background: ΔmarA, reporter plasmid: soxSp): 2.41 ± 0.48 | growth (76.6 µg/ml, genetic background: ΔmarA, reporter plasmid: tolCp): 2.79 ± 0.53 | growth (76.6 µg/ml, genetic background: Δrob, reporter plasmid: EVC): 2.47 ± 0.081 | growth (76.6 µg/ml, genetic background: Δrob, reporter plasmid: acrABp): 3.05 ± 0.31 | growth (76.6 µg/ml, genetic background: Δrob, reporter plasmid: marRABp): 3.35 ± 0.84 | growth (76.6 µg/ml, genetic background: Δrob, reporter plasmid: micFp): 2.57 ± 0.29 | growth (76.6 µg/ml, genetic background: Δrob, reporter plasmid: ompFp): 2.43 ± 0.064 | growth (76.6 µg/ml, genetic background: Δrob, reporter plasmid: robp): 2.82 ± 0.43 | growth (76.6 µg/ml, genetic background: Δrob, reporter plasmid: soxSp): 2.06 ± 0.18 | growth (76.6 µg/ml, genetic background: Δrob, reporter plasmid: tolCp): 2.26 ± 0.23 | growth (76.6 µg/ml, genetic background: ΔsoxS, reporter plasmid: EVC): 2.39 ± 0.32 | growth (76.6 µg/ml, genetic background: ΔsoxS, reporter plasmid: acrABp): 2.79 ± 1.1 | growth (76.6 µg/ml, genetic background: ΔsoxS, reporter plasmid: marRABp): 3.39 ± 0.71 | growth (76.6 µg/ml, genetic background: ΔsoxS, reporter plasmid: micFp): 2.08 ± 0.12 | growth (76.6 µg/ml, genetic background: ΔsoxS, reporter plasmid: ompFp): 2.85 ± 0.7 | growth (76.6 µg/ml, genetic background: ΔsoxS, reporter plasmid: robp): 3.45 ± 0.13 | growth (76.6 µg/ml, genetic background: ΔsoxS, reporter plasmid: soxSp): 2.85 ± 1 | growth (76.6 µg/ml, genetic background: ΔsoxS, reporter plasmid: tolCp): 2.37 ± 0.31 | growth (153.1 µg/ml, genetic background: wild type, reporter plasmid: EVC): 1.83 ± 0.074 | growth (153.1 µg/ml, genetic background: wild type, reporter plasmid: acrABp): 3.08 ± 0.38 | growth (153.1 µg/ml, genetic background: wild type, reporter plasmid: marRABp): 3.026 ± 0.012 | growth (153.1 µg/ml, genetic background: wild type, reporter plasmid: micFp): 2.42 ± 0.47 | growth (153.1 µg/ml, genetic background: wild type, reporter plasmid: ompFp): 2.7 ± 0.41 | growth (153.1 µg/ml, genetic background: wild type, reporter plasmid: robp): 2.86 ± 0.31 | growth (153.1 µg/ml, genetic background: wild type, reporter plasmid: soxSp): 2.18 ± 0.054 | growth (153.1 µg/ml, genetic background: wild type, reporter plasmid: tolCp): 2.52 ± 0.071 | growth (153.1 µg/ml, genetic background: ΔmarA, reporter plasmid: EVC): 3.21 ± 0.44 | growth (153.1 µg/ml, genetic background: ΔmarA, reporter plasmid: acrABp): 4.21 ± 0.67 | growth (153.1 µg/ml, genetic background: ΔmarA, reporter plasmid: marRABp): 3.71 ± 0.38 | growth (153.1 µg/ml, genetic background: ΔmarA, reporter plasmid: micFp): 2.8 ± 0.26 | growth (153.1 µg/ml, genetic background: ΔmarA, reporter plasmid: ompFp): 3.08 ± 0.042 | growth (153.1 µg/ml, genetic background: ΔmarA, reporter plasmid: robp): 4.17 ± 0.51 | growth (153.1 µg/ml, genetic background: ΔmarA, reporter plasmid: soxSp): 2.33 ± 0.48 | growth (153.1 µg/ml, genetic background: ΔmarA, reporter plasmid: tolCp): 2.79 ± 0.24 | growth (153.1 µg/ml, genetic background: Δrob, reporter plasmid: EVC): 2.41 ± 0.3 | growth (153.1 µg/ml, genetic background: Δrob, reporter plasmid: acrABp): 2.77 ± 0.35 | growth (153.1 µg/ml, genetic background: Δrob, reporter plasmid: marRABp): 3.31 ± 0.42 | growth (153.1 µg/ml, genetic background: Δrob, reporter plasmid: micFp): 2.45 ± 0.5 | growth (153.1 µg/ml, genetic background: Δrob, reporter plasmid: ompFp): 2.36 ± 0.035 | growth (153.1 µg/ml, genetic background: Δrob, reporter plasmid: robp): 2.49 ± 0.43 | growth (153.1 µg/ml, genetic background: Δrob, reporter plasmid: soxSp): 1.9 ± 0.44 | growth (153.1 µg/ml, genetic background: Δrob, reporter plasmid: tolCp): 2.27 ± 0.41 | growth (153.1 µg/ml, genetic background: ΔsoxS, reporter plasmid: EVC): 2.37 ± 0.13 | growth (153.1 µg/ml, genetic background: ΔsoxS, reporter plasmid: acrABp): 2.73 ± 1.2 | growth (153.1 µg/ml, genetic background: ΔsoxS, reporter plasmid: marRABp): 3 ± 0.67 | growth (153.1 µg/ml, genetic background: ΔsoxS, reporter plasmid: micFp): 1.81 ± 0.12 | growth (153.1 µg/ml, genetic background: ΔsoxS, reporter plasmid: ompFp): 2.57 ± 0.48 | growth (153.1 µg/ml, genetic background: ΔsoxS, reporter plasmid: robp): 3.05 ± 0.14 | growth (153.1 µg/ml, genetic background: ΔsoxS, reporter plasmid: soxSp): 2.65 ± 0.85 | growth (153.1 µg/ml, genetic background: ΔsoxS, reporter plasmid: tolCp): 2.28 ± 0.41

± gives the standard deviation of the averaged measurements. Values are raw readings; no control value is given beside them.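 Maximum concentrations were near the MIC for antimicrobials, 500 µM for most other compounds, and as high as 1 mM for known inducer-like compounds. Deletion strains began with a tenfold smaller inoculum, and wells with growth under 10% of the overall median counted as non-growing.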
